Assay results published in publication PMC13650161.
Results are given in words; binding and its absence hold for the method and conditions named. In cells and extracts the contact can be indirect. A yes stands for co-enrichment or nearness to the bait. Other partners may have been found. For part of these data: No binding means not detected with the bait. Sequences can lack the tags named with a protein. Each block holds one molecule with its values, some of them ahead of it.

Amino acid sequences for entries named in this document (tags omitted).
UniProt Q5LJZ2: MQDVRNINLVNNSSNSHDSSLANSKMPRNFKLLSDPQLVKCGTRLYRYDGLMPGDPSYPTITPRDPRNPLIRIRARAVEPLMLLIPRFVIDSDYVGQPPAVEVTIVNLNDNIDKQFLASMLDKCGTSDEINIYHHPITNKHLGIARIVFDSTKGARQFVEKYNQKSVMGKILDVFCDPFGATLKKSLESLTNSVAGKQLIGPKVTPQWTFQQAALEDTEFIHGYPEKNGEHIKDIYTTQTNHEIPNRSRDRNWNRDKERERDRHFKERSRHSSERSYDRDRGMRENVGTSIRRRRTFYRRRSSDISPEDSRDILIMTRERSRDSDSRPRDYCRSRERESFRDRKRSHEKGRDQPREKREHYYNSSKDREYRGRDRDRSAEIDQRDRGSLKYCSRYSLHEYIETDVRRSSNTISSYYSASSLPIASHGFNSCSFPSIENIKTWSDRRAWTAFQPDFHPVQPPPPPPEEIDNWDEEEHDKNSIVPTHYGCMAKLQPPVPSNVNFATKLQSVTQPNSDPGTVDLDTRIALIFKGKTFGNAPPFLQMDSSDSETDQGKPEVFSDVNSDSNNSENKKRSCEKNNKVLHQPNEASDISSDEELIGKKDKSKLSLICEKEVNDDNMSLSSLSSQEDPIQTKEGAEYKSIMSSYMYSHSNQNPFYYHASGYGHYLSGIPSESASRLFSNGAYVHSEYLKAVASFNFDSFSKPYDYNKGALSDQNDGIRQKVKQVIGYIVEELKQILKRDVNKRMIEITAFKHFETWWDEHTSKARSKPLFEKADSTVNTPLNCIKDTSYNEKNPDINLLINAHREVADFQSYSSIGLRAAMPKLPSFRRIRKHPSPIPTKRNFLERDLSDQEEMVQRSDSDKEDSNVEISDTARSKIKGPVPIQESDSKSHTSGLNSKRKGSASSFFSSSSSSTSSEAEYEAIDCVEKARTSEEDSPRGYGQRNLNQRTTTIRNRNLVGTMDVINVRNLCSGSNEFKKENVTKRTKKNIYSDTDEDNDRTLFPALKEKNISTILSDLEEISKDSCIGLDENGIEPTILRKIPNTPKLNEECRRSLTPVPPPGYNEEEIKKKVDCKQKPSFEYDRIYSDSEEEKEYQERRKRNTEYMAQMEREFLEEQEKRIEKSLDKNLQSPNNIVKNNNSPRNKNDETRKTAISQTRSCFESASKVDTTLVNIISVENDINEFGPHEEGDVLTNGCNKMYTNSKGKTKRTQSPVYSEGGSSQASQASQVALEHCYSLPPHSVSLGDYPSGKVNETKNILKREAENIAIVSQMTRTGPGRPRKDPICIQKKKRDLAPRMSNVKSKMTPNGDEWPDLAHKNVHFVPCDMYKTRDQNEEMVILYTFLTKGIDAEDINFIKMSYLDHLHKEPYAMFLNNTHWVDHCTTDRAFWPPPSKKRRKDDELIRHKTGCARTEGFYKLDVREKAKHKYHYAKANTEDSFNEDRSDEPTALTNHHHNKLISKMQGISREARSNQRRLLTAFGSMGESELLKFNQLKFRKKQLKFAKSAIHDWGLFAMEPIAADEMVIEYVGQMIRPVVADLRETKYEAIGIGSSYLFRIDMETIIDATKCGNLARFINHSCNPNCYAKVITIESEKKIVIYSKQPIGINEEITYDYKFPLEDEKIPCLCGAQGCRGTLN

Legend:
Experiment in all cases: proximity labelling; TurboID: mTurbo-GFP-Piwi, -Aub or -Ago3 expressed in germline stem cell-like cells (bam-GLKD ovaries), flies fed 100 uM biotin; streptavidin pulldown, nanoLC-MS/MS with label-free quantification against the mTurbo-GFP control, biological duplicates
[1] = target: T1, mTurbo-GFP-Ago3 (Drosophila melanogaster) (UniProt Q7PLK0)
T1 sequence: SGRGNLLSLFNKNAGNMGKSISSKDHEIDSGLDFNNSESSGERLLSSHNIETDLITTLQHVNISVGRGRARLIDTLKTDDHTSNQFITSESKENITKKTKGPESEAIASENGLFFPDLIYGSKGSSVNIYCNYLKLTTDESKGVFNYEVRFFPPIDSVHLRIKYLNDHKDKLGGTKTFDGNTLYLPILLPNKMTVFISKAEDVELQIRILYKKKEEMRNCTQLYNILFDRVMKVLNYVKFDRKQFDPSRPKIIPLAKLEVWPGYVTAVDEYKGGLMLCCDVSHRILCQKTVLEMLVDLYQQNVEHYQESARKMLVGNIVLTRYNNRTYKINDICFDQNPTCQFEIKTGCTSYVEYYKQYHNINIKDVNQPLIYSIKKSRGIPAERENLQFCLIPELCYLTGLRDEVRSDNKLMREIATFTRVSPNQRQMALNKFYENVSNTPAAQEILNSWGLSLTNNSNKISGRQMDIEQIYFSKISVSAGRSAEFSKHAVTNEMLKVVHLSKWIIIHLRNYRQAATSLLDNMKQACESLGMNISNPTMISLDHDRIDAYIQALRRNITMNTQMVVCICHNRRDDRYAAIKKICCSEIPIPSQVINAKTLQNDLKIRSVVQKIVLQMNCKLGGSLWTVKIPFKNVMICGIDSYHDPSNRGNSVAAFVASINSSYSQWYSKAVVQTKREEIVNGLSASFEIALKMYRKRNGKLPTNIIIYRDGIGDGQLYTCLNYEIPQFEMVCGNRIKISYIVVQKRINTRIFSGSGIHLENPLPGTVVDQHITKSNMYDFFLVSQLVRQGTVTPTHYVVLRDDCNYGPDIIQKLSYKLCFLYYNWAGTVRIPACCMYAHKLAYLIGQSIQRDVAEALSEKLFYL

[2] = target: T2, mTurbo-GFP-Aub (Drosophila melanogaster) (UniProt O76922)
T2 sequence: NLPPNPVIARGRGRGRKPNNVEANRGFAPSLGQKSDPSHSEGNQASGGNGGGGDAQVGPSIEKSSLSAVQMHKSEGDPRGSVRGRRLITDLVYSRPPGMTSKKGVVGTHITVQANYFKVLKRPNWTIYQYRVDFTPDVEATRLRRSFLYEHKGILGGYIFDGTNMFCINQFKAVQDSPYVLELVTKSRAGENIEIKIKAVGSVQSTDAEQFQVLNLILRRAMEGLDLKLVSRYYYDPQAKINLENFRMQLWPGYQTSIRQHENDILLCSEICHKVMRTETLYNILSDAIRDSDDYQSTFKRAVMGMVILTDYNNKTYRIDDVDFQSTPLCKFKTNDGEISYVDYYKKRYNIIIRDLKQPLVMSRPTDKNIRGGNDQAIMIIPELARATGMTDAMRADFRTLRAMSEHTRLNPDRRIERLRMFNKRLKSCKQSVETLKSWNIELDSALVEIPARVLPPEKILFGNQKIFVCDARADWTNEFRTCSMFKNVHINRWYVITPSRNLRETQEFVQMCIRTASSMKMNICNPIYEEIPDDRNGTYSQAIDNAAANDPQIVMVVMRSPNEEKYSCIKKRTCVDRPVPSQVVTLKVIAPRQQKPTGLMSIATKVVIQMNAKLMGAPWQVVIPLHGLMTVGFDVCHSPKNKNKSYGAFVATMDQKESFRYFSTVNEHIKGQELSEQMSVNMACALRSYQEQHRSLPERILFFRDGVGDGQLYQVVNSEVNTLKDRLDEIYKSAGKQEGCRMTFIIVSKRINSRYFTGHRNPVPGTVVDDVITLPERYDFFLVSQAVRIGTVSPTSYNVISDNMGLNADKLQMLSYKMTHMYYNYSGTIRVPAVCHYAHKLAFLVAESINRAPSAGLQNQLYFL

[3] = target: T3, mTurbo-GFP-Piwi (Drosophila melanogaster) (UniProt Q9VKM1)
T3 sequence: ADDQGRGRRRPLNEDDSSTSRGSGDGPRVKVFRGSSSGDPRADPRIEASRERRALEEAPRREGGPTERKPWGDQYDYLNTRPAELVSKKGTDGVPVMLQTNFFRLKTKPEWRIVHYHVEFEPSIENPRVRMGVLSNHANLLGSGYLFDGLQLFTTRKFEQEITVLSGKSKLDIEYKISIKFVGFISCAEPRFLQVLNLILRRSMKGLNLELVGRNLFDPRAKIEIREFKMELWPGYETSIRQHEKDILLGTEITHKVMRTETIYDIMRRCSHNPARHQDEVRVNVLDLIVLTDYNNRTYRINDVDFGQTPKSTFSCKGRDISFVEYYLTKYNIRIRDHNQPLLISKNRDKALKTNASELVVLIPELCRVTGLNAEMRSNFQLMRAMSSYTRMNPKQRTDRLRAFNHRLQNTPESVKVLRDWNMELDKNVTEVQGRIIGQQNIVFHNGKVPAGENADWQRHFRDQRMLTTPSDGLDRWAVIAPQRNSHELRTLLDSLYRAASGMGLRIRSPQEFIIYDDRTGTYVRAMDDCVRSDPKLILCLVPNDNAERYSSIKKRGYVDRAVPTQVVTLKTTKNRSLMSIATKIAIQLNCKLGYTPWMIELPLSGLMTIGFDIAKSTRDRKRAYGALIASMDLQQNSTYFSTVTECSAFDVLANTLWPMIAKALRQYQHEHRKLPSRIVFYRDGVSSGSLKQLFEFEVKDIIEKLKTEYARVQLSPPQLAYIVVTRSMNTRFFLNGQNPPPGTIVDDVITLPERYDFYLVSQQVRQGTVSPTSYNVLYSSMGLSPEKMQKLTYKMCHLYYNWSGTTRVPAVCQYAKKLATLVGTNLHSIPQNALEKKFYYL

- binding [1]: binds
- binding [2]: no binding
Molecule: Bootlegger

- binding [3]: binds
Molecule: Set1 (from UniProt Q5LJZ2 1-1641)

- binding [2]: binds
B1: Hrb27C (protein, UniProt P48809 1-421)
chain: MEEDERGKLFVGGLSWETTQENLSRYFCRFGDIIDCVVMKNNESGRSRGFGFVTFADPTNVNHVLQNGPHTLDGRTIDPKPCNPRTLQKPKKGGGYKVFLGGLPSNVTETDLRTFFNRYGKVTEVVIMYDQEKKKSRGFGFLSFEEESSVEHVTNERYINLNGKQVEIKKAEPRDGSGGQNSNNSTVGGAYGKLGNECSHWGPHHAPINMMQGQNGQMGGPPLNMPIGAPNMMPGYQGWGTSPQQQQYGYGNSGPGSYQGWGAPPGPQGPPPQWSNYAGPQQTQGYGGYDMYNSTSTGAPSGPSGGGSWNSWNMPPNSAGPTGAPGAGAGTATDMYSRAQAWATGGPSTTGPVGGMPRTGPGNSASKSGSEYDYGGYGSGYDYDYSNYVKQEGASNYGAGPRSAYGNDSSTQPPYATSQAV

- binding [3]: binds
- binding [2]: binds
B2: Zucchini (protein, UniProt Q9VKD7 1-253)
chain: MLITQIIMKQIRDYPIVSTISIAVSTVLASEVIWKLVQCSRSKREKASRVHEVIIFNELGEICAAVHMRNSSMGSQKPQVSPCCNTHCSLRNVAKIVEQIDRAVYSIDLAIYTFTSLFLADSIKRALQRGVIIRIISDGEMVYSKGSQISMLAQLGVPVRVPITTNLMHNKFCIIDGFERVEEIRLLRKLKFMRPCYSIVISGSVNWTALGLGGNWENCIITADDKLTATFQAEFQRMWRAFAKTEGSQIQLK
